Record: PubChem BioAssay AID1224830 (NIAID, 2016)

- Assay: 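Host factors that control LPS-induced TNF expression in human macrophages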 (primary screen)
- Cell system: human THP-1 monocytic leukaemia cells, TNF dual-luciferase reporter clone, PMA-differentiated to macrophage-like cells
- Knock-down reagent: siRNA pool against human genes, 50 nM
- Timing: LPS for 4 h, given about 3 days after siRNA transfection
- Conditions: bacterial LPS (TLR4 ligand), 10 ng/ml
- Detection: 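Ratio of firefly to renilla light, scaled to the plate median and expressed as a robust z-score per replicate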
- Scale: TNF reporter robust z-score: higher = stronger TNF reporter response to LPS
- Rule for the call: 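Each well counts as active if its z-score is over 2.8 or under -1.5; controls are left without a call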
Shown is a random part of about 18,000 reagents tested. About 2,900 of them (16%) count as active. 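Calls are made per well; low scores hint the gene aids the LPS response, high scores that it dampens it.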 Entries without a mark were called inactive. Repeated entries: four replicate wells of each siRNA pool.

| gene | TNF reporter robust z-score |
| --- | --- |
| SIGLEC11 | 8.14 (active) |
| SIGLEC11 | -0.74 |
| SIGLEC11 | -0.88 |
| SIGLEC11 | -1.58 (active) |
| MRPS28 | -0.05 |
| MRPS28 | -0.46 |
| MRPS28 | 0.08 |
| MRPS28 | -0.5 |
| UVRAG | -0.62 |
| UVRAG | -0.34 |
| UVRAG | -0.26 |
| UVRAG | 0.36 |
| TWF2 | -1.86 (active) |
| TWF2 | -1.61 (active) |
| TWF2 | -2.2 (active) |
| TWF2 | -1.72 (active) |
| VIRMA | 0.13 |
| VIRMA | -0.24 |
| VIRMA | 0.06 |
| VIRMA | 0.29 |
| GLI2 | 3.5 (active) |
| GLI2 | 2.65 |
| GLI2 | 3.01 (active) |
| GLI2 | 1.71 |
| ZDHHC21 | -1.08 |
| ZDHHC21 | -0.48 |
| ZDHHC21 | 2.43 |
| ZDHHC21 | 0.6 |
| TOX | 0.5 |
| TOX | 0.16 |
| TOX | -0.44 |
| TOX | 0.47 |
| SYNE2 | -0.77 |
| SYNE2 | -1.03 |
| SYNE2 | -1.1 |
| SYNE2 | -0.87 |
| LDHC | 0.44 |
| LDHC | 0.71 |
| LDHC | 0.61 |
| LDHC | 1.26 |
| TSPY2 | -0.3 |
| TSPY2 | 0.07 |
| TSPY2 | -0.13 |
| TSPY2 | -0.01 |
| AFF1 | -1.21 |
| AFF1 | 0.18 |
| AFF1 | 1.34 |
| AFF1 | 1.75 |
| AKAP7 | -0.6 |
| AKAP7 | -0.19 |
| AKAP7 | -0.79 |
| AKAP7 | 0.17 |
| KLRA1P | 1.2 |
| KLRA1P | 0.85 |
| KLRA1P | 0.51 |
| KLRA1P | 1.1 |
| TMED8 | -1.79 (active) |
| TMED8 | -1.29 |
| TMED8 | -1.43 |
| TMED8 | -1.07 |
| RPL10 | -0.5 |
| RPL10 | -0.01 |
| RPL10 | -0.44 |
| RPL10 | -0.31 |
| CABYR | -0.54 |
| CABYR | -0.77 |
| CABYR | -1.16 |
| CABYR | -1.25 |
| GOLGA5 | -0.03 |
| GOLGA5 | 0.08 |
| GOLGA5 | 0.98 |
| GOLGA5 | 0.53 |
| GZMK | 0.06 |
| GZMK | 1.07 |
| GZMK | 0.43 |
| GZMK | 0.53 |
| ADAM11 | -1.81 (active) |
| ADAM11 | -1.14 |
| ADAM11 | 0.27 |
| ADAM11 | -1.45 |
| AGXT2 | -0.28 |
| AGXT2 | -0.23 |
| AGXT2 | -0.36 |
| AGXT2 | -0.66 |
| PI4KA | 1.73 |
| PI4KA | 1.26 |
| PI4KA | 1.79 |
| PI4KA | 0.67 |
| FURIN | -0.5 |
| FURIN | 4.67 (active) |
| FURIN | 0.65 |
| FURIN | -0.77 |
| IKBKE | 2 |
| IKBKE | 0.31 |
| IKBKE | -0.65 |
| IKBKE | 1.68 |
| RORC | 3.01 (active) |
| RORC | 2.05 |
| RORC | 3.5 (active) |
| RORC | 2.63 |
| UNC80 | 0.92 |
| UNC80 | 2.88 (active) |
| UNC80 | 1.55 |
| UNC80 | 1.35 |
| CHIC1 | 0 |
| CHIC1 | -0.55 |
| CHIC1 | -1.47 |
| CHIC1 | -1.36 |
| CENPM | -0.52 |
| CENPM | -1.13 |
| CENPM | -0.36 |

Entries above whose target name starts with S or s:
| gene | TNF reporter robust z-score |
| --- | --- |
| SIGLEC11 | 8.14 (active) |
| SIGLEC11 | -0.74 |
| SIGLEC11 | -0.88 |
| SIGLEC11 | -1.58 (active) |
| SYNE2 | -0.77 |
| SYNE2 | -1.03 |
| SYNE2 | -1.1 |
| SYNE2 | -0.87 |
